Data taken from ChEMBL document CHEMBL3988442, “University of Dundee, Small-Polar-MMV Screening Library” (2021).

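Viability assay of Plasmodium falciparum sporozoites; the read-out is not stated. The concentration is filed as 10 mM, unlikely as a test dose, so the dose is not known. The record gives no direction; compounds that gave an IC50 in retests scored well above the rest, so higher reads as lower viability. Strong results were mostly tested again. Size under these conditions: about 34,000 compounds, about 280 of them at 50% or above in at least one test.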

The filed quantity is “Percent Effect” (%). The record does not define 0% and 100%; most values in the screen are far below 50% and negative numbers occur (in some assays of this library far below -100). This is an unselected part of the compounds tested. Two or more numbers in one place are separate tests of the same structure; such repeats can differ widely.

| compound | Percent Effect |
|---|---|
| `Cc1cc(C)n(-c2cc(N3CCN(C(=O)C(C)(C)C)CC3)nc(C)n2)n1` | -12.88% |
| `CO[C@H]1CO[C@@]2(CCCN(C(=O)C3=CCCCC3)C2)C1` | -5.952% |
| `COCc1nc(C(=O)N2CCCC2c2ccncc2)cs1` (configuration not stated) | 42.33% & 3.012% & 1.472% |
| `CCSCC(C)NCc1cc(-c2ccco2)on1` (configuration not stated) | -16.77% |
| `CS(=O)(=O)N1CCC2(CN(C(=O)c3cccnc3)C2)C1.O=C(O)C(F)(F)F` | -20.11% |
| `Cc1ccc(CN(C)C(=O)c2scnc2C)cc1` | 4.734% |
| `CCN(CC)C1COc2ccc(Br)cc2C1=O` (configuration not stated) | 7.751% |
| `[H][C@@]12CCCO[C@]1([H])[C@@H](Oc1cccnc1)CN2C(=O)C1=CCCC1` | -20.74% |
| `CCn1cnnc1CNC(=O)N1CCN(Cc2ccccc2)CC1` | -4.624% |
| `CC(C)c1[nH]c2ncccc2c1CN1CCC(O)CC1` | 0.5812% |
| `CC(C)(C)c1c[nH]c([C@@H]2COCCN2C2CCNCC2)n1` | 3.007% & 8.93% |
| `Cc1cc(N2CCC(c3nnc(CN(C)C)n3C3CC3)CC2)ccn1` | 2.912% |
| `CCN(Cc1ccccc1)Cc1nc2c(cnn2C)c(=O)[nH]1` | 4.252% |
| `FC1(F)CCN(Cc2ccncc2)CC12CCN(Cc1ccccn1)C2.O=C(O)C(F)(F)F.O=C(O)C(F)(F)F.O=C(O)C(F)(F)F` (configuration not stated) | -0.9143% |
| `Cc1ccc(OCCN2CCC(c3ccnn3CCO)CC2)cc1` | -3.142% |
| `CN(C)CCN1CCN(Cc2nccs2)Cc2cccnc21.O=C(O)C(F)(F)F.O=C(O)C(F)(F)F.O=C(O)C(F)(F)F` | 8.684% |
| `O=C(NC1CCCc2nc(N3CCCCC3)ncc21)C1CCCC1` (configuration not stated) | 1.374% |
| `CN(C)C(=O)N1CCN(Cc2cnn(C)c2)CC2(CNC(=O)C2)C1.O=C(O)C(F)(F)F` (configuration not stated) | -8.914% |
| `O=C(c1cc(F)ccc1F)C1CCN(C(=O)c2cnccn2)CC1` | -3.639% |
| `Cc1ccc(NC2CCN(C(=O)c3cccc4cccnc34)CC2)nn1` | -0.7721% |
| `CC(OCC1CC1)C(=O)N1CCCN(Cc2nccn2C)CC1` (configuration not stated) | 1.432% |
| `CN(CC1COc2ccccc2O1)C(=O)c1ccc(-c2cn[nH]c2)nc1` (configuration not stated) | -9.692% |
| `COc1c(CNCc2ccc(Cn3ccnc3)cc2)c(C)nn1C` | 7.951% |
| `[H][C@@]12CCN(Cc3ccncc3)C[C@@]1([H])O[C@H](C)C2` | -7.967% |
| `NC(=O)CN1CCCC(c2ccnc(Nc3ncccn3)c2)C1` (configuration not stated) | 24.34% & 12.28% & 9.246% |
| `O=C(NCC1CCOC1)N1CCN(Cc2ccc3c(c2)OCO3)CC1` (configuration not stated) | 7.81% |
| `O=C(O)C(F)(F)F.O=C(c1ccccc1F)N1CCC2(CC1)CC(Oc1ccccn1)CO2` (configuration not stated) | 1.751% |
| `O=C(c1cc[nH]n1)N1CCc2c(nc(N3CCCCC3)[nH]c2=O)C1` | -1.112% |
| `O=C(c1cccc(Oc2ccccc2)c1)N1CCCC(O)(CO)CC1` (configuration not stated) | -8.462% |
| `O=C(NCCOc1ccc2c(c1)OCO2)C1CC(=O)N(CC2CC2)C1` (configuration not stated) | 7.905% |
| `O=C(CC1CCCC1)N1CCCC1c1ccc(CN2CCOCC2)cn1` (configuration not stated) | 3.885% |
| `CC(C)OCc1ncn2c1CN(Cc1ccoc1)CCC2.O=C(O)C(F)(F)F` | 11.78% |
| `Cc1csc(N2CCCN(C(=O)c3csc(C)n3)CC2)n1` | 0.8544% |
| `Cc1nc(-c2nnc[nH]2)sc1C(=O)N1CCCC(C(F)(F)F)C1` (configuration not stated) | 3.684% |
| `CCN1CCC(CNC(=O)C2(c3cccc(C)c3)CCCCC2)CC1` | -0.3365% |
| `O=C(O)C(F)(F)F.[H][C@@]12CCN(Cc3ccoc3)[C@]1([H])CC[C@@H](C(=O)N1CCCC1)O2` | -4.614% |
| `O=C(CCc1ccco1)N1CCCN(Cc2cscn2)CC1` | 9.173% |
| `COCCOC(=O)N1CC2=CC(C)(C)COc3ccc(OC)c(c32)C1` | -30.52% |
| `O=C(O)C(F)(F)F.[H][C@@]12CN(Cc3ccoc3)CCO[C@]1([H])CN(C(=O)CCc1ccccc1)C2` | 5.642% |
| `Cc1ccc(CCc2nc(C3CCOC3)no2)o1` (configuration not stated) | -13.07% |
| `COc1cc(C(=O)N2CCCC(n3ccnc3)C2)cc2c1OCCO2` (configuration not stated) | -4.643% |
| `Nc1nccnc1CC1CCCN(Cc2cccc3[nH]ccc23)C1` (configuration not stated) | 4.859% |
| `Cc1cc2c(cc1Cl)C=CC1(CCN(CC(=O)N3CCCC3)CC1)O2` | 12.05% |
| `CC(=O)N1CCOC(c2nc(N(C)C)ncc2-c2cccc(F)c2)C1` (configuration not stated) | 6.451% |
| `Cc1ccc(-c2nc(CN(Cc3cccs3)C3CCS(=O)(=O)C3)cs2)o1` (configuration not stated) | -0.3337% |
| `O=C1CC(c2ccccc2)c2c(n3ccsc3nc2=O)N1` (configuration not stated) | -2.632% |
| `Cc1cccc(SC2CCN(Cc3nc(CC4CC4)no3)CC2)c1` | -7.996% |
| `Cc1cc(C)c2nc(CN3CCC(N4CCOC4=O)CC3)cc(O)c2c1` | -2.315% |